From paper PMC10648158
These are yes or no findings as the source states them, for the method shown. Some results given as binding are weak or reduced against the parent protein; the word gives no strength.

Sequences of proteins named here, by UniProt entry; tags and fusion partners are left off. A change or cut given only in a name is not applied to a line headed by its entry.
UniProt P02454: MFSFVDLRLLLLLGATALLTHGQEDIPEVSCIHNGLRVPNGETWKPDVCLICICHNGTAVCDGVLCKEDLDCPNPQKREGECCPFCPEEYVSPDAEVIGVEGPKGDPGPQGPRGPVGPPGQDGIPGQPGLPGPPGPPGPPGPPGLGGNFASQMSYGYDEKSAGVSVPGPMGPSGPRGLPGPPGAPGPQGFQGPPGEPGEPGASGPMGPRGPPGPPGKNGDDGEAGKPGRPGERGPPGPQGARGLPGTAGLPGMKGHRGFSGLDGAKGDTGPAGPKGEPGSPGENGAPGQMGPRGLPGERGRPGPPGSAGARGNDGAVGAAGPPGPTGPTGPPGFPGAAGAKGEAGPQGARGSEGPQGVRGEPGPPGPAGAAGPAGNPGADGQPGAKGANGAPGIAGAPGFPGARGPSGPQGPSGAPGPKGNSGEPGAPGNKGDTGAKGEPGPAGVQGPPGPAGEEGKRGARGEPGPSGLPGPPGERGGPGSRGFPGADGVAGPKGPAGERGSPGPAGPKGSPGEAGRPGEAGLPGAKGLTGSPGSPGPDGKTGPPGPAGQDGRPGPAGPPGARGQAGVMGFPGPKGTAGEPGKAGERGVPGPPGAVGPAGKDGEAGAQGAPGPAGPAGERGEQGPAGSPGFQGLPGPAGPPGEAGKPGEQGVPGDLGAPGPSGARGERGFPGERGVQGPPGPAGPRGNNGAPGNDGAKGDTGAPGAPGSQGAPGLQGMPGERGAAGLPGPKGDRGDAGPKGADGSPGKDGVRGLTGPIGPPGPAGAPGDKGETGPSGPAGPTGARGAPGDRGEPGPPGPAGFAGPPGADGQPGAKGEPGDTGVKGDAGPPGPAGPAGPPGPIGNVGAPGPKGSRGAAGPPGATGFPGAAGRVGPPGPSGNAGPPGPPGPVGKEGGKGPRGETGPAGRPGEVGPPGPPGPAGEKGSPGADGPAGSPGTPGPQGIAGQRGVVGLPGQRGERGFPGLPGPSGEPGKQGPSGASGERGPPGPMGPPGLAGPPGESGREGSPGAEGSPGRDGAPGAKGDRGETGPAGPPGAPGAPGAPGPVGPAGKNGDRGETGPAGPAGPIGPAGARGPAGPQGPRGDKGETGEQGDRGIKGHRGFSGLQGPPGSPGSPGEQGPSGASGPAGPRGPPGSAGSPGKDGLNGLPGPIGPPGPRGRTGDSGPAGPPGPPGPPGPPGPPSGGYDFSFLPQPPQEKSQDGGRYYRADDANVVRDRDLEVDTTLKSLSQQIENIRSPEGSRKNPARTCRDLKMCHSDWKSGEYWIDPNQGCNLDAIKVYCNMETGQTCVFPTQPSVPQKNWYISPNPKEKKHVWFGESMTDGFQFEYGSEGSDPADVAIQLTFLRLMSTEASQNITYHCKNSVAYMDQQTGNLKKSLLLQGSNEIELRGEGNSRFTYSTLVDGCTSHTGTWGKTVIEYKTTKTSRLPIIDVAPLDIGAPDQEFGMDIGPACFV
UniProt P02466: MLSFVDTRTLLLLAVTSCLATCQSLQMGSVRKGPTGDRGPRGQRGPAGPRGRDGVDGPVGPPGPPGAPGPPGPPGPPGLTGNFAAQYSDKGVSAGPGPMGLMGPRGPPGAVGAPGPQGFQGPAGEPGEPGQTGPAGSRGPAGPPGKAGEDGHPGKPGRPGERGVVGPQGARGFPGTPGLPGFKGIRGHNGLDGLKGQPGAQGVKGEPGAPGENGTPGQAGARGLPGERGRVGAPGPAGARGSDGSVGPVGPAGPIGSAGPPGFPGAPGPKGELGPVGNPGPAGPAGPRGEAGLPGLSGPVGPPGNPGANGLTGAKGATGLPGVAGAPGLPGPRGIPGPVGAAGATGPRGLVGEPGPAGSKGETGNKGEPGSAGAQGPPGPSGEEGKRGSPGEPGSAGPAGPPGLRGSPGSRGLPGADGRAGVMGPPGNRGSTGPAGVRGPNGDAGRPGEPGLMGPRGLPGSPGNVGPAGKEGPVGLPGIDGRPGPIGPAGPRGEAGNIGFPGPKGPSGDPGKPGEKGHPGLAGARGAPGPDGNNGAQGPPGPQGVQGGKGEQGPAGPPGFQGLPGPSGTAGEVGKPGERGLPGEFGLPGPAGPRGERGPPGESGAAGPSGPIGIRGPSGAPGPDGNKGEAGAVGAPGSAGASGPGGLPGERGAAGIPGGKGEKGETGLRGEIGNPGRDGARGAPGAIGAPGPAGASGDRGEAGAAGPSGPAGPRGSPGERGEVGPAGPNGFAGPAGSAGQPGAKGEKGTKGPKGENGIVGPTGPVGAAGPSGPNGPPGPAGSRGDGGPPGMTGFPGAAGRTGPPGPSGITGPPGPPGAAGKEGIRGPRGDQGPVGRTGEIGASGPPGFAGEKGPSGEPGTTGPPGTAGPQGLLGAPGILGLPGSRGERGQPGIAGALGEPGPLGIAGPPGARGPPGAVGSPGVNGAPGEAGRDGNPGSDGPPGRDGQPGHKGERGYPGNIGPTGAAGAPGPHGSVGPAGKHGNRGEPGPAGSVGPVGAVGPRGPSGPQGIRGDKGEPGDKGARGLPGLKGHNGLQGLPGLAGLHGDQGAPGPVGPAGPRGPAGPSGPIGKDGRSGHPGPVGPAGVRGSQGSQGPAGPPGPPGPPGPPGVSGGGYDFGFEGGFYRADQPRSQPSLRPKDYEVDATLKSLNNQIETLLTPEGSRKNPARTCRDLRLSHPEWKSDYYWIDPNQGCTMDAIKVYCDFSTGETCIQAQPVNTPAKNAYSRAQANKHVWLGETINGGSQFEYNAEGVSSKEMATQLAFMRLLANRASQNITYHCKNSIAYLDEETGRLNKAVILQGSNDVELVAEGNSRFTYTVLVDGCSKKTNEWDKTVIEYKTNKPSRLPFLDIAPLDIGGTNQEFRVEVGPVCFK

Columns and labels:
[1] = biological target: T1, rat tail Collagen-1 (rat) (UniProt P02454+P02466); assay: ELISA; Collagen-1 binding assay as a1, proteins pre-incubated with 100 μM ATPγS; both purified
[2] = biological target: T1, rat tail Collagen-1 (rat); assay: ELISA; Collagen-1 binding assay: 96-well plate coated with polymerised, dried rat tail Collagen-1 (50 μL of 0.02 μg/μL); biotinylated protein in PBS for 1 h at RT; streptavidin-HRP and TMB, absorbance at 607 nm; Kd by non-linear regression, one-site total binding; both purified

| binding [1] | binding [2] | Substance |
| --- | --- | --- |
| binds | binds | FLAG-Hsp90α D93A (from UniProt P07900 1-732) |
| binds | binds | FLAG-Hsp90α E47A (from UniProt P07900 1-732) |
| binds |  | FLAG-Hsp90α WT (from UniProt P07900 1-732) |
|  | binds weakly | GST-Hsp90-C (623-732) (from UniProt P07900 623-732) (domain or fragment) |
|  | binds weakly | GST-Hsp90-M (272-617) (from UniProt P07900 272-617) (domain or fragment) |
|  | binds | GST-Hsp90-N (9-236) (from UniProt P07900 9-236) (domain or fragment) |
